Data as given in article PMC6393709.

By UniProt entry, the sequences of proteins in these tests, tags left out.
UniProt P09874: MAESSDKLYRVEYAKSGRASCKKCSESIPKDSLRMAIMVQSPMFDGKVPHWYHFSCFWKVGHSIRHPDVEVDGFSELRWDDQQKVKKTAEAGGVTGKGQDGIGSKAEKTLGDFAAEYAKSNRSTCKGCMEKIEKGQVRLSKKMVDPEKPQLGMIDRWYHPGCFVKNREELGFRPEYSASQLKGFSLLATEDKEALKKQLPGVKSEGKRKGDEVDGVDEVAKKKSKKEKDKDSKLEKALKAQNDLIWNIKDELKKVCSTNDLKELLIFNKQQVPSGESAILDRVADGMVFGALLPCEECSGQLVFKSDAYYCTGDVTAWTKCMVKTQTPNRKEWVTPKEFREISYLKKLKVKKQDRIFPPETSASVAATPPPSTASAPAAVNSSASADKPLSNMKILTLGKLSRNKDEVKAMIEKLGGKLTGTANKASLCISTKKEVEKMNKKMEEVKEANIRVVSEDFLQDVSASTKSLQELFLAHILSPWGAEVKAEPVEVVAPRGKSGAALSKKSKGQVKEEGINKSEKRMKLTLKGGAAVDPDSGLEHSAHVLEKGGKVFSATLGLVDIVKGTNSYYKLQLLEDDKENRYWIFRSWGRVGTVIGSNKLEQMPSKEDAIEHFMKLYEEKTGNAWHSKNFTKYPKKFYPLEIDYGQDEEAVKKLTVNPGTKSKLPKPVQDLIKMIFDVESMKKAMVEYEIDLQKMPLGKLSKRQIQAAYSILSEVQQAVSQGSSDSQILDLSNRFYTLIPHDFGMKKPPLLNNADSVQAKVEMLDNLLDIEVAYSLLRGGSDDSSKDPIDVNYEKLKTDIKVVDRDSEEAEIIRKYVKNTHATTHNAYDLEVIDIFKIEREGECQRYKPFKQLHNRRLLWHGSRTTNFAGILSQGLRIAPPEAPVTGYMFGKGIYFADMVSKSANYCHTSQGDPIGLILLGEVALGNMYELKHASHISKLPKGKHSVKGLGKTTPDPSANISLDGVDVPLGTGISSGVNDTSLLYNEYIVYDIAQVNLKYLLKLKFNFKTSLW

Target: T1, BCR (human (endogenous in K562)) (UniProt P11274)
T1 sequence: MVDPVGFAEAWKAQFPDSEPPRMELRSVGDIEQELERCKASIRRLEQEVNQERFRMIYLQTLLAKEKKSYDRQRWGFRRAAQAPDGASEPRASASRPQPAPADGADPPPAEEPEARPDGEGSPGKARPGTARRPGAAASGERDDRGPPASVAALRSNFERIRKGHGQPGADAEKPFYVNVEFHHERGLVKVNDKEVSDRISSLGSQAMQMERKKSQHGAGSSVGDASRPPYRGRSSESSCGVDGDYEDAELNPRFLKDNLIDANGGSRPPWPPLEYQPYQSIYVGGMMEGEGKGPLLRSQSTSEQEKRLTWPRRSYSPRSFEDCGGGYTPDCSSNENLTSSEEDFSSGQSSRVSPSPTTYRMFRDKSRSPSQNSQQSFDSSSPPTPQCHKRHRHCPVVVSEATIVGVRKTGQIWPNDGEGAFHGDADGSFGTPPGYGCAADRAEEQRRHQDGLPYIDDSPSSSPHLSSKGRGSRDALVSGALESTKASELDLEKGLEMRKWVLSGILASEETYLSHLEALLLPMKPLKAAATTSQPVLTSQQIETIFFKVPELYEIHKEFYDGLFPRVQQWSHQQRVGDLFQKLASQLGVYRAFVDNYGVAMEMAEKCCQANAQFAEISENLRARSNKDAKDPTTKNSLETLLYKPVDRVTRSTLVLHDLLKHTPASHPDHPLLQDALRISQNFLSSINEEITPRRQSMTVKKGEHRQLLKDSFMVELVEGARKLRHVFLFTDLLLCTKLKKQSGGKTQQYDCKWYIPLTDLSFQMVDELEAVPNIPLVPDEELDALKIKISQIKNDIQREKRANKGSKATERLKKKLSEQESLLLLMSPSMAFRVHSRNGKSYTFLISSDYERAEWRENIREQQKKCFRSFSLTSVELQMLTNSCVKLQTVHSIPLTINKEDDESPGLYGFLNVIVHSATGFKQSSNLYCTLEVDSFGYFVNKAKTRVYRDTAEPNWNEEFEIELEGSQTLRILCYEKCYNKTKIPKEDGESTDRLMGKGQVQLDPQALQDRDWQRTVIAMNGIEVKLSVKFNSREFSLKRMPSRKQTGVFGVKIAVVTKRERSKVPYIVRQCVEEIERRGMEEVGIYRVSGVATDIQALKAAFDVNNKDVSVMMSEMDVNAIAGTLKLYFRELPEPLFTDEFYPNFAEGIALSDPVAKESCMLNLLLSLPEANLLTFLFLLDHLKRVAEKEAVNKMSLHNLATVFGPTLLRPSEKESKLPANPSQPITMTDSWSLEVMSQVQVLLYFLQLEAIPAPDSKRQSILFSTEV
Assay: affinity purification with mass spectrometry; anti-FLAG affinity purification from K562-Flag PPFIA1 cells and anti-BCR IP from K562 cells; IP products separated by SDS-PAGE and analysed by mass spectrometry

binding: binds
Substance: PARP1 (from UniProt P09874 1-1014)

Results are given in words; binding and its absence hold for the method and conditions named. In cells and extracts the contact can be indirect. These calls come from enrichment with a bait or labelling near it, and not all partners need be listed.
